The exact form of at least one protein or probe is not confirmed. At least one result comes from cells or an extract, where the contact may be indirect. For some assays here: Weaker means in comparison with the reference protein, sequence or condition of that experiment. Where a protein sequence is shown, tags need not be part of it.
What was measured:
[1] = target: T1, MEF2D (mouse (BV2 microglia cell line)) (UniProt Q63943); assay: EMSA; details: BV2 whole cell extract, complex nearly abolished; EMSA as described in ref 23; antibody 1 h at 4 C after incubation with labeled probe; salt and pH not given; protein in an extract
T1 sequence (looked up, limits assumed): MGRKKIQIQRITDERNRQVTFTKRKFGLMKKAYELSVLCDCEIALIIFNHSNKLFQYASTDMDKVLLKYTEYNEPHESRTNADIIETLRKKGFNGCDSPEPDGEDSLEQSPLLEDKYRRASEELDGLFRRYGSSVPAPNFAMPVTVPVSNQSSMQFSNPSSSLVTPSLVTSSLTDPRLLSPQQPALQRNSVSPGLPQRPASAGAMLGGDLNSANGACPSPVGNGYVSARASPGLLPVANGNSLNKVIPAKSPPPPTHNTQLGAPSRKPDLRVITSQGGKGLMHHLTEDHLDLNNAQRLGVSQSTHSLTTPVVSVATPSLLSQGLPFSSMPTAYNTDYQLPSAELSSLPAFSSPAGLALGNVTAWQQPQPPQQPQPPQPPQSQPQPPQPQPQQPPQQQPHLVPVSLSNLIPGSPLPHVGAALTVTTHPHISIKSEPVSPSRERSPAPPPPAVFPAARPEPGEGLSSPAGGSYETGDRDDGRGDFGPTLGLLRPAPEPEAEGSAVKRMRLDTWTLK

[2] = target: T1, MEF2D (mouse (BV2 microglia cell line)); assay: EMSA supershift; details: BV2 whole cell extract, complex increased after LPS 24 h; EMSA as described in ref 23; antibody 1 h at 4 C after incubation with labeled probe; salt and pH not given; protein in an extract

Sequence | binding result [1] | binding result [2]
TCGACGGGCGATTTTTCGGGCCG (double strand) [MEF2 mutant probe (MT)] | binds more weakly | 
TCGACGGGCTATTTTTAGGGCC (double strand) [MEF2 wild type probe] |  | binds

Reference: PMC4339472
